No constants are given. Whether binding was seen depends on the method and setting. Some results given as binding are weak or reduced against the parent protein; the word gives no strength.
Biological target: Ino80 (356–691 aa, named as N-FLAG) (S. cerevisiae) (UniProt P53115)
Test: affinity co-purification (FLAG resin, then Mono Q) with SDS-PAGE or EM of the fractions; whole-cell extract of S. cerevisiae, 30%–55% ammonium sulfate cut, FLAG resin 2 h at 4°C, washes with 500 mM and 50 mM ammonium sulfate, elution with 3×FLAG peptide, Mono Q gradient 100–1000 mM ammonium sulfate

Amino acid sequences for entries named in this document (tags omitted). Residues count along the entry.
UniProt P53115, residues 356-691: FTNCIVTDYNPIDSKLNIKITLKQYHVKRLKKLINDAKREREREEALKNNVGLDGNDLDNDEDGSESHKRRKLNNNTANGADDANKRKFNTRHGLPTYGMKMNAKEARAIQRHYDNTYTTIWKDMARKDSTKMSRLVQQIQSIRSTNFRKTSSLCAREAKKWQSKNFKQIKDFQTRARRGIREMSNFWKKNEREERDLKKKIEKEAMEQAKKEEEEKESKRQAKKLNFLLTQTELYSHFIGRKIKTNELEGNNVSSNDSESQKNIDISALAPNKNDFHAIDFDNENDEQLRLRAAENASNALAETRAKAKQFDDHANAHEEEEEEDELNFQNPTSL
UniProt P35189: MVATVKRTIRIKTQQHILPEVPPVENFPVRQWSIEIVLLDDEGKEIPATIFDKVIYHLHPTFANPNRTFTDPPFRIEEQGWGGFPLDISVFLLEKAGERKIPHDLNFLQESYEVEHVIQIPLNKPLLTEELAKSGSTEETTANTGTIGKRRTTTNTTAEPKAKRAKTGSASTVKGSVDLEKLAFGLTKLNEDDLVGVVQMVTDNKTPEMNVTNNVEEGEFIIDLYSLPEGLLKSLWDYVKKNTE

Substance: TATA-binding-protein-associated factor 14 (Taf14) (from UniProt P35189 1-244)
- binding: binds
